Test results published in patent publication US6969760.
No constants are given. Whether binding was seen depends on the method and setting. Binding seen in cells or lysates may run through a third protein. Some entries that bind do so weakly or less than the wild type. Where a sequence is shown, tags or fusion partners need not be part of it.

Chains of the proteins cited; added tags and fusions are not shown. Lines headed by an entry give the natural chain unless they say otherwise; changes in a name come on top.
UniProt Q62120: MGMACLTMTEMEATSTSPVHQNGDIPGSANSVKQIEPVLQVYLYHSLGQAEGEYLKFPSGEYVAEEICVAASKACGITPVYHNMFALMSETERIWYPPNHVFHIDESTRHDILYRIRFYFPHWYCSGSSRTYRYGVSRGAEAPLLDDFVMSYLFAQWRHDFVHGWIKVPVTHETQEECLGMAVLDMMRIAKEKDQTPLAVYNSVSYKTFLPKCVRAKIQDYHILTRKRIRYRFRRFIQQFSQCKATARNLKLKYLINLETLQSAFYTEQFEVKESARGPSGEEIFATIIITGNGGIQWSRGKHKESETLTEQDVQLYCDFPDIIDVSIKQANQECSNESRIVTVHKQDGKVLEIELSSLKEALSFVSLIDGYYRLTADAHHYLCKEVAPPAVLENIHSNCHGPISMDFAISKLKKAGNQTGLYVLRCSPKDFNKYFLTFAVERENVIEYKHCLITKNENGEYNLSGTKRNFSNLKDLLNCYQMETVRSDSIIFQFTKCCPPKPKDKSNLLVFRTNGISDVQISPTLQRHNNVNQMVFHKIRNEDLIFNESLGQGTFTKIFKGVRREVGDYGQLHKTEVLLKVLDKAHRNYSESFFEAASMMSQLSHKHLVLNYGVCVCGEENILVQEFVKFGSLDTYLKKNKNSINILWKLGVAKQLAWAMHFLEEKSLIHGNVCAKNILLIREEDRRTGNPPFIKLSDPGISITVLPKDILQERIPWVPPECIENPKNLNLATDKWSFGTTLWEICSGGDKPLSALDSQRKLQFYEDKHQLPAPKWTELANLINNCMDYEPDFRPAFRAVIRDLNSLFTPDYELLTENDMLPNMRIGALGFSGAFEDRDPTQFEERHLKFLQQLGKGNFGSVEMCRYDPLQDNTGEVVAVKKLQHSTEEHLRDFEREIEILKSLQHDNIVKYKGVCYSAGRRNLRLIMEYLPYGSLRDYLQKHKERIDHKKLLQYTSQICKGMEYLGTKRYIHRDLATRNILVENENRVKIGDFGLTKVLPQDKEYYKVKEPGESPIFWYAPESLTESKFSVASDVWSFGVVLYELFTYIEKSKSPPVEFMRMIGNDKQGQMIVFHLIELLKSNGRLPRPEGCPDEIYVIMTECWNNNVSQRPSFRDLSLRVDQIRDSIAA

Legend:
[1] = target: T1, GST fusion protein containing the full length murine EPOR cytoplasmic domain (amino acids 257-483) (murine) (UniProt P14753); experiment: pull-down from cell extracts on GST fusion protein beads, Jak2 immunoblot
T1 sequence (looked up): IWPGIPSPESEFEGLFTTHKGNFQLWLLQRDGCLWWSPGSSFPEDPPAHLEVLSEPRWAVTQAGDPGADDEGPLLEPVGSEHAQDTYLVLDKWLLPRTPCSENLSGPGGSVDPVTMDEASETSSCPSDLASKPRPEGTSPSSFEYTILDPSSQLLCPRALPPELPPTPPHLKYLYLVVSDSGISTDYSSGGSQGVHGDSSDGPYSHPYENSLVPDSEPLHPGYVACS

[2] = target: T1, GST fusion protein containing the full length murine EPOR cytoplasmic domain (amino acids 257-483) (murine); experiment: pull-down from extracts of unstimulated or EPO stimulated DA3(EPOR) cells on GST-EPOR beads, Jak2 immunoblot

- binding [1]: binds
- binding [2]: binds
Substance: murine Jak2 protein tyrosine kinase (from UniProt Q62120 1-1120) (enzyme)
